Data: patent publication US20260240994A1 (MAYO FOUNDATION FOR MEDICAL EDUCATION AND RESEARCH, published 2026)
No constants are given. Whether binding was seen depends on the method and setting. Some results given as binding are weak or reduced against the parent protein; the word gives no strength.

The chains behind the UniProt entries cited, without tags or fusion partners. Residues count along the entry.
UniProt F1PAA9, residues 157-885: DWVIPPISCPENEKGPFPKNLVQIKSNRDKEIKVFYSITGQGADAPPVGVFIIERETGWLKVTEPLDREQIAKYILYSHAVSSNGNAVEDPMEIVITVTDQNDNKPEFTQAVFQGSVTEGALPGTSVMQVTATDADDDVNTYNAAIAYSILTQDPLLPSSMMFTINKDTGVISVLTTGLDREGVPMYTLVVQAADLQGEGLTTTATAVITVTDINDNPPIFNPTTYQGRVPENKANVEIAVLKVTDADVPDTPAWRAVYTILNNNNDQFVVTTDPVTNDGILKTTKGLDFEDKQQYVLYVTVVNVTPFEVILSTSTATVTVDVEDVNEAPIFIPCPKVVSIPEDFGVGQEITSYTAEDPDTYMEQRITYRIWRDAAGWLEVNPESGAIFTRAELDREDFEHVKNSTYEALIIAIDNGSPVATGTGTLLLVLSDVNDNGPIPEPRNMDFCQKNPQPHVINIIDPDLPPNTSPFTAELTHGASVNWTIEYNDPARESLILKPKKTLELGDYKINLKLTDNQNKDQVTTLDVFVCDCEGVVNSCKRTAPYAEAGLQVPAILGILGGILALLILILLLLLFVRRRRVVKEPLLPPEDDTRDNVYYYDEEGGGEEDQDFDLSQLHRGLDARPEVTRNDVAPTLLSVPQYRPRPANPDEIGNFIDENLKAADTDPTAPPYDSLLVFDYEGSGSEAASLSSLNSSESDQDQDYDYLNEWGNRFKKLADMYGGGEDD
UniProt P12830, residues 155-707: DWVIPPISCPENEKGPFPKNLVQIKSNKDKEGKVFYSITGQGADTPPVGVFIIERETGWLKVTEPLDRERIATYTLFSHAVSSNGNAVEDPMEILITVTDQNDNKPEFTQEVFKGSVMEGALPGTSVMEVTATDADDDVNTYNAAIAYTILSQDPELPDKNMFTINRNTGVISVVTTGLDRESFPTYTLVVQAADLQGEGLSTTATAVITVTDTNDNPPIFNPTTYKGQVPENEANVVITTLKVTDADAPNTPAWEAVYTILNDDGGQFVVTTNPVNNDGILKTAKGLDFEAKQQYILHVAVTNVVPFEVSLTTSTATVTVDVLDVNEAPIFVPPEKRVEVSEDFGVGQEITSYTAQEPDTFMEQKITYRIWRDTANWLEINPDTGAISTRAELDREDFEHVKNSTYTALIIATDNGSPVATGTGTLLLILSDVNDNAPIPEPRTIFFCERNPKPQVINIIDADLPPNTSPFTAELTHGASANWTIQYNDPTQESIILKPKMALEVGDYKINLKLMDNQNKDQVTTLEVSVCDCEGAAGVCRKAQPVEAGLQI

Experiments:
canine Ecad (canine) [1] = target: canine Ecad (canine) (UniProt F1PAA9); assay: phage display with Ecad selection (legend of FIG. 23A)
human Ecad (human) [2] = target: human Ecad (human) (UniProt P12830); assay: as above
canine Ecad (canine) [3] = target: canine Ecad (canine) (UniProt F1PAA9); assay: phage display selection; phage ELISA and CAR T killing cited for mouse
human Ecad (human) [4] = target: human Ecad (human) (UniProt P12830); assay: as above
canine Ecad (canine) [5] = target: canine Ecad (canine) (UniProt F1PAA9); assay: phage display; FIG. 6 co-culture of canine Ecad+ cells with CAR T cells
human Ecad (human) [6] = target: human Ecad (human) (UniProt P12830); assay: as above

Measured: binding

B1: hmcECAD.6 scFv clone (scFv)
scFv: LPVLTQPPSASGTPGQRVTISCSGSSSNIGSNYVYWYQQLPGTAPKLLIYRNNQRPSGVPDRFSGSKSGTSASLAISGLQSEDEADYYCASWDTSLRAWVFGGGTKLTVLGEGKSSGSGSESKASEVQLVQSGGGLVQPGGSLRLSCAASGFTFSSYSMNWVRQAPGKGLEWVSYISSSSSTIYYVDSVKGRFTISRDNAKNSLYLQMDSLRAEDTAVYYCARGGRVLVGALFDYWGQGTLVTVSS
notes: Human scFv from a naive phage display library; also called anti-hmcECAD.6; anti-Ecad scFv
binds: canine Ecad (canine) [1] | human Ecad (human) [2] | canine Ecad (canine) [3] | human Ecad (human) [4] | canine Ecad (canine) [5] | human Ecad (human) [6]
